No constants are given. Whether binding was seen depends on the method and setting. For part of these data: Binding seen in cells or lysates may run through a third protein. Some results given as binding are weak or reduced against the parent protein; the word gives no strength. Tags and fused reporters may be left off the sequences shown. Blank lines part the entries; values can stand above or below the molecule they belong to.
Tests used:
[1] = biological target: T1, GST-tagged Mps1 (human) (UniProt P33981); assay: pull-down; GST-Mps1 on GST beads incubated with His-Crm1; room temperature 2 h, 3 hrs in lysis buffer; beads washed 3x; western blot; both purified
T1 sequence: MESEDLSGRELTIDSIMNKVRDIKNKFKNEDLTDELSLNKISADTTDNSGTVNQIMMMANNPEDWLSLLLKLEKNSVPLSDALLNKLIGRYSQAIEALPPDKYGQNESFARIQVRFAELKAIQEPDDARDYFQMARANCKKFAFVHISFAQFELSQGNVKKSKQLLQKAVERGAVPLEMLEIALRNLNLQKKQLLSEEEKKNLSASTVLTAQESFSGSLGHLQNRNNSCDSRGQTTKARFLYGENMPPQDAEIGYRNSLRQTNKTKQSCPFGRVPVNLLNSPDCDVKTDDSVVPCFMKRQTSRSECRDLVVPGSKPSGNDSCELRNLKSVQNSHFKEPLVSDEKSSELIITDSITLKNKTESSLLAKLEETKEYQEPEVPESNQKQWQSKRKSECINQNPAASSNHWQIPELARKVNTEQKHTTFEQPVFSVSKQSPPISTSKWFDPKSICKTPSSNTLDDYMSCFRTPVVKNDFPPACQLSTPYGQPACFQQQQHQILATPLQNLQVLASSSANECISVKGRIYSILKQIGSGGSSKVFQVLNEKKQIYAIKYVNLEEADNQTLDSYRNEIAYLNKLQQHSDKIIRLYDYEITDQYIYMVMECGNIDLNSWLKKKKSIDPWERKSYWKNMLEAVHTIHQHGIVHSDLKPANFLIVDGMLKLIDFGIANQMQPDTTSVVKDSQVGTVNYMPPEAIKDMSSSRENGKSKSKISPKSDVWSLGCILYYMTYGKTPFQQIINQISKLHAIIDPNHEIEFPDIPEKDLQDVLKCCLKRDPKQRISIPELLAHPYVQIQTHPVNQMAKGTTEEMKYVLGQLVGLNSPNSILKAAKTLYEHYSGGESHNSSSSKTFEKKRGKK

Protein sequences, listed by entry. Tags and fused reporters are not part of them.
UniProt O14980: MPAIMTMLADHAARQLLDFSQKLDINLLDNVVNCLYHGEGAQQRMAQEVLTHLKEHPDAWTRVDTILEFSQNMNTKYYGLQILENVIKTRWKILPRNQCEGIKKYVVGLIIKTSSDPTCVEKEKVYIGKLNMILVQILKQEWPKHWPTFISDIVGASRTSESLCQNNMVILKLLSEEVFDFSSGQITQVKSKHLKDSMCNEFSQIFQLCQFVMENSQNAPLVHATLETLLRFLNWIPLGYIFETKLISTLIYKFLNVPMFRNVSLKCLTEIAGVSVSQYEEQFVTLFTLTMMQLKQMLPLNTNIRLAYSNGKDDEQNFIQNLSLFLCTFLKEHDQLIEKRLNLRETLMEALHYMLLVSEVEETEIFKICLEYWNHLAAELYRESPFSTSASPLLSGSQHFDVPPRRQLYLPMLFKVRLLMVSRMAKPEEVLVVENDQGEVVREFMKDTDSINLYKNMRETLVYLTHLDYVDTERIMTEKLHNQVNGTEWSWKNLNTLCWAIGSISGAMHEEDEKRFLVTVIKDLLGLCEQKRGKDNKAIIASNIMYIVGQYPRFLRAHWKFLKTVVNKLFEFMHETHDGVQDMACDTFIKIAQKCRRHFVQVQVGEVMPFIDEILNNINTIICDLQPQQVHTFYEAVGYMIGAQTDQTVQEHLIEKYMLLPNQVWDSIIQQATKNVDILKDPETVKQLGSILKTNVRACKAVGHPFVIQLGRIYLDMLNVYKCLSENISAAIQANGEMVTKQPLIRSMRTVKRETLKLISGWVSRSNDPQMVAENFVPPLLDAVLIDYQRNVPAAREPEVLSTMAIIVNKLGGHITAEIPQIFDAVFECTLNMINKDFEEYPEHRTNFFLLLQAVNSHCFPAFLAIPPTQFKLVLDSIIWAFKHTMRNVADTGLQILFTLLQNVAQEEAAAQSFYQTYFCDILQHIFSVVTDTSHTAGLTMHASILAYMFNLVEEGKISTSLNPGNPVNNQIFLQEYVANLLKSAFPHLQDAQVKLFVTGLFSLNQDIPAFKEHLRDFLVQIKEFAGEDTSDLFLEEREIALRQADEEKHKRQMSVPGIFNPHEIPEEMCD

[2] = biological target: T2, myc-Mps1 (mono-polar spindles-1, TTK) (human) (UniProt P33981); assay: co-IP; 293 T cells co-transfected with pEXL-FTH-Crm1 and pRK5-myc-Mps1, collected after 48 h for immuno-precipitation; which protein was precipitated not given
T2 sequence: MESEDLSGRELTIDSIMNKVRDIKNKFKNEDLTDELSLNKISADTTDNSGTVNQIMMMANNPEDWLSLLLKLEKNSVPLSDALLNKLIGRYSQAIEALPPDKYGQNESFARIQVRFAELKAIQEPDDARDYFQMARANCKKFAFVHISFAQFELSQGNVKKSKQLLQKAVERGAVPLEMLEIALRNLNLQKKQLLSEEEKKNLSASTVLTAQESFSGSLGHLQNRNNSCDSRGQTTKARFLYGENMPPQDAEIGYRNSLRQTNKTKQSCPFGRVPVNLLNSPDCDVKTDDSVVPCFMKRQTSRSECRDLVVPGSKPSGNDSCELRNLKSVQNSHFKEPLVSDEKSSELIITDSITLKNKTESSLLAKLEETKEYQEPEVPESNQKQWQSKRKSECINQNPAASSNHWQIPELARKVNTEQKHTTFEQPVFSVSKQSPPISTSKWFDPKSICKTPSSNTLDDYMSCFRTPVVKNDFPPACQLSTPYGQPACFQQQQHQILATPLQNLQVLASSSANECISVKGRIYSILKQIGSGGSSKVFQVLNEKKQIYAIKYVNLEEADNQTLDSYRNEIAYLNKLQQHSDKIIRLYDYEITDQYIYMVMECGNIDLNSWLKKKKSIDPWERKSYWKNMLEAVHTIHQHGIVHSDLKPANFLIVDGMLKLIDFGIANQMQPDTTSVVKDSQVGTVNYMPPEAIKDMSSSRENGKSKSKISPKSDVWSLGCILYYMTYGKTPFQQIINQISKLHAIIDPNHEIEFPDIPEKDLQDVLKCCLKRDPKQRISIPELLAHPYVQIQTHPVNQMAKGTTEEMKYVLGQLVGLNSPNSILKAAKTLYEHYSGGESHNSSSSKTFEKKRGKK

[3] = biological target: 6x His-tagged Crm1 (UniProt O14980); assay: pull-down; reciprocal: bead bound His-Crm1 incubated with non-tagged Mps1; same standard protocol; western blot; both purified

binding [1]: binds
Molecule: 6x His-tagged Crm1 (from UniProt O14980 1-1071)

binding [2]: binds
Molecule: FTH-Crm1 (Chromosome region maintenance 1) (from UniProt O14980 1-1071)

binding [3]: binds
B1: non-tagged Mps1 (protein, UniProt P33981 1-857)
chain: MESEDLSGRELTIDSIMNKVRDIKNKFKNEDLTDELSLNKISADTTDNSGTVNQIMMMANNPEDWLSLLLKLEKNSVPLSDALLNKLIGRYSQAIEALPPDKYGQNESFARIQVRFAELKAIQEPDDARDYFQMARANCKKFAFVHISFAQFELSQGNVKKSKQLLQKAVERGAVPLEMLEIALRNLNLQKKQLLSEEEKKNLSASTVLTAQESFSGSLGHLQNRNNSCDSRGQTTKARFLYGENMPPQDAEIGYRNSLRQTNKTKQSCPFGRVPVNLLNSPDCDVKTDDSVVPCFMKRQTSRSECRDLVVPGSKPSGNDSCELRNLKSVQNSHFKEPLVSDEKSSELIITDSITLKNKTESSLLAKLEETKEYQEPEVPESNQKQWQSKRKSECINQNPAASSNHWQIPELARKVNTEQKHTTFEQPVFSVSKQSPPISTSKWFDPKSICKTPSSNTLDDYMSCFRTPVVKNDFPPACQLSTPYGQPACFQQQQHQILATPLQNLQVLASSSANECISVKGRIYSILKQIGSGGSSKVFQVLNEKKQIYAIKYVNLEEADNQTLDSYRNEIAYLNKLQQHSDKIIRLYDYEITDQYIYMVMECGNIDLNSWLKKKKSIDPWERKSYWKNMLEAVHTIHQHGIVHSDLKPANFLIVDGMLKLIDFGIANQMQPDTTSVVKDSQVGTVNYMPPEAIKDMSSSRENGKSKSKISPKSDVWSLGCILYYMTYGKTPFQQIINQISKLHAIIDPNHEIEFPDIPEKDLQDVLKCCLKRDPKQRISIPELLAHPYVQIQTHPVNQMAKGTTEEMKYVLGQLVGLNSPNSILKAAKTLYEHYSGGESHNSSSSKTFEKKRGKK

Source: publication PMC4373099
